Results from paper PMC7819943, “Rice protein-binding microarrays: a tool to detect cis-acting elements near promoter regions in rice”.
The other results are listed elsewhere or left out.

The chains behind the UniProt entries cited, without tags or fusion partners.
UniProt Q0JBA9, entry or part of it: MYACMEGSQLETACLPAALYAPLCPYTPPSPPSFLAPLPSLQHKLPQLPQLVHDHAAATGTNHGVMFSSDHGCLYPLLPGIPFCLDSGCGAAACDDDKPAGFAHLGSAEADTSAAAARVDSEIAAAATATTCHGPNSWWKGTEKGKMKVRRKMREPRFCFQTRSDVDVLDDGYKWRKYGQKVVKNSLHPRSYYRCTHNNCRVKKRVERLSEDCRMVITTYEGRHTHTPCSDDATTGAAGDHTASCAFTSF

These sequences were tested against OsWRKY34 (Oryza sativa, UniProt Q0JBA9 1-250) (assay: protein-binding microarray (RPBM); PBS, 2% BSA, 51.3 ng/ul salmon testes DNA, 50 uM zinc acetate, 200 nM TF, 25 C, 1 h; high values mean tight binding). Details: protein: recombinant; tags: N-terminal polyhistidine and DsRed monomer fusion (pET32a); label: CyDye5-dUTP incorporated in the synthesized complementary strand; 3' TTTTT single-stranded linker to array surface; dsDNA, one strand shown.
Summary of the method: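 Transcription factors, each fused N-terminally to a polyhistidine tag and DsRed, were expressed in E. coli BL21-CodonPlus and purified on Ni–NTA. A custom Agilent array was made double-stranded by primer extension with Cy5-dUTP and blocked with 2% BSA. It was incubated with 200 nM protein in PBS, 2% BSA, salmon testes DNA and 50 µM zinc acetate at 25 °C for 1 h, then washed. The binding signal is per-feature fluorescence intensity (arbitrary units) read on an Axon 4000B scanner.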

Sequence | binding signal
AACTGTATGGTCTGTCAGTCTGCCTTGATATATAATTCTACGGAGTCACCTAGTGCAG | 9120 fluorescence intensity (a.u.)
GCCGCTACCCTCCTCGTCGGTGTCGGGCTATTTATACACTCGGAGTCACCTAGTGCAG | 8150 fluorescence intensity (a.u.)
ATGGGTGTTGTCGGGTATGTGATGCAATTTGTTAGATAATCGGAGTCACCTAGTGCAG | 11100 fluorescence intensity (a.u.)
ATTATAGTAGATGTTGTTGTAACCTGCAAGACTCTTCTCTCGGAGTCACCTAGTGCAG | 9970 fluorescence intensity (a.u.)
TGTACGTACTGGTTTTGACTTTTGTCAACTATTGAAATCTCGGAGTCACCTAGTGCAG | 8510 fluorescence intensity (a.u.)
TCTCTCGCCGCCGTCTCGCACCTCGCGTCGCCGCCGCCGCCGGAGTCACCTAGTGCAG | 10500 fluorescence intensity (a.u.)
CACACCCAGCAACACTTCGCCTTCCATGCTTAAGCAAAACCGGAGTCACCTAGTGCAG | 8070 fluorescence intensity (a.u.)
AAGATTGCCGCTGGGGTTTTTATTTGTTTTATTCGTGGATCGGAGTCACCTAGTGCAG | 8390 fluorescence intensity (a.u.)
ATTTGGATTGTTTTTGTCTCTCGTTGTCAACTAGGTATTACGGAGTCACCTAGTGCAG | 14300 fluorescence intensity (a.u.)
GCCCATGTGTTGTTGCGTCGTCGCCGTGCTTGTTCTTGGTCGGAGTCACCTAGTGCAG | 10900 fluorescence intensity (a.u.)
GTACAGTTTGCCAATTTCATTACTTGTGTTTATCTGAATTCGGAGTCACCTAGTGCAG | 11700 fluorescence intensity (a.u.)
TTCGTCCGTCTGTCATCTGTGTGGCCCGGAGCCCATCCCGCGGAGTCACCTAGTGCAG | 8210 fluorescence intensity (a.u.)
CAGTCTGTTGACTTTCTTTACATGCCATGTGCTCTCTAATCGGAGTCACCTAGTGCAG | 12300 fluorescence intensity (a.u.)
CGCTACAAATATGTATACACTGCCTTACTCTAATTAGAAGCGGAGTCACCTAGTGCAG | 9610 fluorescence intensity (a.u.)
GTCAACGGCTACTTCTCCTTATCCCCACCTCCTCCTCCTCCGGAGTCACCTAGTGCAG | 8140 fluorescence intensity (a.u.)
GGTTGGTGCTGTATTGTTTGAGGGGAGGGGATTCCATTTTCGGAGTCACCTAGTGCAG | 47400 fluorescence intensity (a.u.)
TTCGTGTTCCGAGAAAAATTTGTTTCCGTATTCGTGTCCGCGGAGTCACCTAGTGCAG | 8090 fluorescence intensity (a.u.)
CATGGCCACCATTGAGACACACTACCACTGCTACTCTCTCCGGAGTCACCTAGTGCAG | 10200 fluorescence intensity (a.u.)
TACTTCTCTGCGAGCAGCGTTTCCTGCCGTCAGAATTCGGCGGAGTCACCTAGTGCAG | 8040 fluorescence intensity (a.u.)
TGATTCTCGCTGTTTCAACTGCGGTTCTTATAGTCATGCTCGGAGTCACCTAGTGCAG | 8560 fluorescence intensity (a.u.)
GTAACTTTCTGCAGACTGCAACATTCTGAATCTAACTTTTCGGAGTCACCTAGTGCAG | 9120 fluorescence intensity (a.u.)

Sequence | binding signal
TCTCGGTTATTTTCCCAGCCTCCACCTCCAGTGGCTGTTGCGGAGTCACCTAGTGCAG | 8420 fluorescence intensity (a.u.)
GCCATCACCGTCGCCGCGACGCCCGTCACCGGCCGCCGGCCGGAGTCACCTAGTGCAG | 9980 fluorescence intensity (a.u.)
TCCTTCCATCTCTCTGCTCACTTCACTTCACCTTCCAATGCGGAGTCACCTAGTGCAG | 9020 fluorescence intensity (a.u.)
AACACCCAACCATGTACCATTCCATGCACAACCACAACCACGGAGTCACCTAGTGCAG | 13000 fluorescence intensity (a.u.)
GACGGGAGACCCAATCATAAATTGGAGGCGCCGGCCATCTCGGAGTCACCTAGTGCAG | 11800 fluorescence intensity (a.u.)
TTCACACTACTCCTTCAGATTAATCCATCTCGTTGATATTCGGAGTCACCTAGTGCAG | 9490 fluorescence intensity (a.u.)
CTTCTTCTCTCCGCTCCGCGTGTCCACTCCTCTCCCAATCCGGAGTCACCTAGTGCAG | 12200 fluorescence intensity (a.u.)
TATACTTTATCTACTCCTAGCACATTTATTCCTTACTTTCCGGAGTCACCTAGTGCAG | 9520 fluorescence intensity (a.u.)
TGGGGTTGACTTGTTTTATCACTACTCGAAGGAACGGCTCCGGAGTCACCTAGTGCAG | 10300 fluorescence intensity (a.u.)
CAGCCGTCCACTTTTCAACCCTATGTCGGATTTATACAGTCGGAGTCACCTAGTGCAG | 11300 fluorescence intensity (a.u.)
GGAGCTGGAGTTGCATGCATTGCTTTACCCTGGCCGTATGCGGAGTCACCTAGTGCAG | 8590 fluorescence intensity (a.u.)
TTTTTCCTGTGTTTTGTAATCCTCTATTTTACACTTATATCGGAGTCACCTAGTGCAG | 10900 fluorescence intensity (a.u.)
TTACGCCTACCACATCGCTCCTGCTGTCTGCTGTCCTAGCCGGAGTCACCTAGTGCAG | 9180 fluorescence intensity (a.u.)
TTCAATATGTTGCGCATATTTGATCTGTTCATGTTATTCTCGGAGTCACCTAGTGCAG | 8390 fluorescence intensity (a.u.)
CTCTAGTTTCCATTCCATTTCCACCGCCACTCCCACCCAACGGAGTCACCTAGTGCAG | 8380 fluorescence intensity (a.u.)
GGATCGGATCGATCATTCTCGTGGCTTATACTTGGAATCTCGGAGTCACCTAGTGCAG | 9070 fluorescence intensity (a.u.)
GCGGTTTCTAGTTTGTCAATGCATATCAGCATCTCCATCGCGGAGTCACCTAGTGCAG | 9720 fluorescence intensity (a.u.)
ATTTAGAGTTGACTTTGGTTTATTTTTCATTGAAGTTTATCGGAGTCACCTAGTGCAG | 9450 fluorescence intensity (a.u.)
CCAATCAACTTCTTTGATCATCCATGCATTCGTTACACTCCGGAGTCACCTAGTGCAG | 8620 fluorescence intensity (a.u.)
CTTTGCCTGCGTTCTGCCTACACACAGCCGCCCTTGCCGACGGAGTCACCTAGTGCAG | 10700 fluorescence intensity (a.u.)
ACAGGACGAACCGATCAACCCTAGCGGCTAAATTTGACTCCGGAGTCACCTAGTGCAG | 9420 fluorescence intensity (a.u.)

An excerpt of these results, in markdown:

| Sequence | binding signal |
| --- | --- |
| GCCGCTACCCTCCTCGTCGGTGTCGGGCTATTTATACACTCGGAGTCACCTAGTGCAG | 8150 fluorescence intensity (a.u.) |
| TGTACGTACTGGTTTTGACTTTTGTCAACTATTGAAATCTCGGAGTCACCTAGTGCAG | 8510 fluorescence intensity (a.u.) |
| TCTCGGTTATTTTCCCAGCCTCCACCTCCAGTGGCTGTTGCGGAGTCACCTAGTGCAG | 8420 fluorescence intensity (a.u.) |
